These are yes or no findings as the source states them, for the method shown. In cells and extracts the contact can be indirect. Some binding calls cover weakened binding; strength is not graded here. Sequences can lack the tags named with a protein.

By UniProt entry, the sequences of proteins in these tests, tags left out. Residues count along the entry.
UniProt P25942, residues 21-277: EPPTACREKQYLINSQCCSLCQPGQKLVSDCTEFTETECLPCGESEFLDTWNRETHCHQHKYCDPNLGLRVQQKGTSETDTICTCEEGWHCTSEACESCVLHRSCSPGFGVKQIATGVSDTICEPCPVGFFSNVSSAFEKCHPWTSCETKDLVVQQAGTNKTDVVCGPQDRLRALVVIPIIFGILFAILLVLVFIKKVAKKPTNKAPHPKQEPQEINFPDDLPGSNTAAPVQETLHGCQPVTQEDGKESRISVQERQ

Common to all, as to experiment: FRET or BRET; YFP and mCherry labeled proteins co-transfected (1 ug of each plasmid) into HEK-293T cells, 48 h, FRET signal read by FACS (LSRII or LSRFortessa); adding rhAPRIL or rhBAFF had no effect on the TACI-TACI signal
Background: BRET reads energy transfer from a luciferase to a nearby fluorophore.

The target in assay [1] is T1, TACI-L (long TACI isoform) labeled with mCherry or YFP (human) (UniProt O14836).
T1 sequence: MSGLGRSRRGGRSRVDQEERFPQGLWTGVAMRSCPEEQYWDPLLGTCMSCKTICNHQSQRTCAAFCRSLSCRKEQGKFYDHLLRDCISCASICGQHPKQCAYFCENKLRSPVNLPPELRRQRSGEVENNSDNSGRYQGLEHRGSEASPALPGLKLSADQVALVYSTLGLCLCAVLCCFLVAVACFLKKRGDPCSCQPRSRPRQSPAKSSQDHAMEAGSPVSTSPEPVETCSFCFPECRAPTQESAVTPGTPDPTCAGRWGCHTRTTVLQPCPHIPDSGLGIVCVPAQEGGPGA

Assay [2] concerns the target T2, TACI-S (short TACI isoform) labeled with mCherry or YFP (human) (UniProt O14836).
T2 sequence: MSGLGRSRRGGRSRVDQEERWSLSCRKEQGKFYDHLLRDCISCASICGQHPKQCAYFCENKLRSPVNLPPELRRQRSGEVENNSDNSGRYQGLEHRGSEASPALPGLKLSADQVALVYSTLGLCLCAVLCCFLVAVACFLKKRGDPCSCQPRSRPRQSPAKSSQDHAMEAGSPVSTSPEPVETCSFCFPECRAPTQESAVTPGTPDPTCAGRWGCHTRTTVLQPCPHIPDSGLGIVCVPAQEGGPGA

The target in assay [3] is CD40-eYFP (pReceiver-huCD40-eYFP) (human) (UniProt P25942).

B1: TACI-L S194X, mCherry labeled (receptor, UniProt O14836 1-193)
chain: MSGLGRSRRGGRSRVDQEERFPQGLWTGVAMRSCPEEQYWDPLLGTCMSCKTICNHQSQRTCAAFCRSLSCRKEQGKFYDHLLRDCISCASICGQHPKQCAYFCENKLRSPVNLPPELRRQRSGEVENNSDNSGRYQGLEHRGSEASPALPGLKLSADQVALVYSTLGLCLCAVLCCFLVAVACFLKKRGDPC
As for B1, the binding entry in assay [1] is listed as “binds”; in assay [2], “binds”; in assay [3], “no binding”.

B2: TACI-L (long TACI isoform) labeled with mCherry or YFP (receptor, UniProt O14836 1-293)
chain: MSGLGRSRRGGRSRVDQEERFPQGLWTGVAMRSCPEEQYWDPLLGTCMSCKTICNHQSQRTCAAFCRSLSCRKEQGKFYDHLLRDCISCASICGQHPKQCAYFCENKLRSPVNLPPELRRQRSGEVENNSDNSGRYQGLEHRGSEASPALPGLKLSADQVALVYSTLGLCLCAVLCCFLVAVACFLKKRGDPCSCQPRSRPRQSPAKSSQDHAMEAGSPVSTSPEPVETCSFCFPECRAPTQESAVTPGTPDPTCAGRWGCHTRTTVLQPCPHIPDSGLGIVCVPAQEGGPGA
Take B2: the binding result is “binds” in assay [1] and “no binding” in assay [3].

B3: TACI-L C104R, mCherry labeled (receptor, UniProt O14836 1-293)
chain: MSGLGRSRRGGRSRVDQEERFPQGLWTGVAMRSCPEEQYWDPLLGTCMSCKTICNHQSQRTCAAFCRSLSCRKEQGKFYDHLLRDCISCASICGQHPKQCAYFRENKLRSPVNLPPELRRQRSGEVENNSDNSGRYQGLEHRGSEASPALPGLKLSADQVALVYSTLGLCLCAVLCCFLVAVACFLKKRGDPCSCQPRSRPRQSPAKSSQDHAMEAGSPVSTSPEPVETCSFCFPECRAPTQESAVTPGTPDPTCAGRWGCHTRTTVLQPCPHIPDSGLGIVCVPAQEGGPGA
As for B3, the binding result in assay [1] is on record as “binds”; in assay [2] it was “binds”; in assay [3] it was “no binding”.

B4: TACI-L A181E, mCherry labeled (receptor, UniProt O14836 1-293)
chain: MSGLGRSRRGGRSRVDQEERFPQGLWTGVAMRSCPEEQYWDPLLGTCMSCKTICNHQSQRTCAAFCRSLSCRKEQGKFYDHLLRDCISCASICGQHPKQCAYFCENKLRSPVNLPPELRRQRSGEVENNSDNSGRYQGLEHRGSEASPALPGLKLSADQVALVYSTLGLCLCAVLCCFLVEVACFLKKRGDPCSCQPRSRPRQSPAKSSQDHAMEAGSPVSTSPEPVETCSFCFPECRAPTQESAVTPGTPDPTCAGRWGCHTRTTVLQPCPHIPDSGLGIVCVPAQEGGPGA
With B4, the binding result is given as “binds” in assay [1], “binds” in assay [2] and “no binding” in assay [3].

B5: TACI-S (short TACI isoform) labeled with mCherry or YFP (receptor, UniProt O14836-2 1-247)
chain: MSGLGRSRRGGRSRVDQEERWSLSCRKEQGKFYDHLLRDCISCASICGQHPKQCAYFCENKLRSPVNLPPELRRQRSGEVENNSDNSGRYQGLEHRGSEASPALPGLKLSADQVALVYSTLGLCLCAVLCCFLVAVACFLKKRGDPCSCQPRSRPRQSPAKSSQDHAMEAGSPVSTSPEPVETCSFCFPECRAPTQESAVTPGTPDPTCAGRWGCHTRTTVLQPCPHIPDSGLGIVCVPAQEGGPGA
As to B5, the binding result was “binds” in assay [1], “binds” in assay [2] and “no binding” in assay [3].

The values above are taken from article PMC6176016.
